In the supplement of paper PMC12819154, “High-throughput peptide-centric local stability assay extends protein–ligand identification to membrane proteins, tissues and bacteria” (Nature Structural & Molecular Biology, 2025):
The list shows a part of the results. Most entries show no effect beyond the scatter of the controls.

Protein sequences, listed by entry. Tags and fused reporters are not part of them. Lines headed by an entry give the natural chain unless they say otherwise; changes in a name come on top.
UniProt Q8R1N0: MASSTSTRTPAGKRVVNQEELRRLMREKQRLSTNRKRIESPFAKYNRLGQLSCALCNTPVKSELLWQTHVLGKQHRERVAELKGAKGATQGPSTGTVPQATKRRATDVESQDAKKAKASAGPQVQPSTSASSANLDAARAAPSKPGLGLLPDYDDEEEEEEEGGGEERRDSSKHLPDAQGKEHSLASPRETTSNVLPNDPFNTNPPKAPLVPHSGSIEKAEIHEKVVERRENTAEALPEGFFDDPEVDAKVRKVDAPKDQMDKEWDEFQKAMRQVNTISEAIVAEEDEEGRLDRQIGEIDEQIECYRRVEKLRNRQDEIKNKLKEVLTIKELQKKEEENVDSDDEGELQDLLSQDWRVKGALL
UniProt Q8QZT4: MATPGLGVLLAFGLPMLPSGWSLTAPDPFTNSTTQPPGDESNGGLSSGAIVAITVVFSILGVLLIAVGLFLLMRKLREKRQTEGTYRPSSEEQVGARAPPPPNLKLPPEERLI
UniProt Q8R0T2: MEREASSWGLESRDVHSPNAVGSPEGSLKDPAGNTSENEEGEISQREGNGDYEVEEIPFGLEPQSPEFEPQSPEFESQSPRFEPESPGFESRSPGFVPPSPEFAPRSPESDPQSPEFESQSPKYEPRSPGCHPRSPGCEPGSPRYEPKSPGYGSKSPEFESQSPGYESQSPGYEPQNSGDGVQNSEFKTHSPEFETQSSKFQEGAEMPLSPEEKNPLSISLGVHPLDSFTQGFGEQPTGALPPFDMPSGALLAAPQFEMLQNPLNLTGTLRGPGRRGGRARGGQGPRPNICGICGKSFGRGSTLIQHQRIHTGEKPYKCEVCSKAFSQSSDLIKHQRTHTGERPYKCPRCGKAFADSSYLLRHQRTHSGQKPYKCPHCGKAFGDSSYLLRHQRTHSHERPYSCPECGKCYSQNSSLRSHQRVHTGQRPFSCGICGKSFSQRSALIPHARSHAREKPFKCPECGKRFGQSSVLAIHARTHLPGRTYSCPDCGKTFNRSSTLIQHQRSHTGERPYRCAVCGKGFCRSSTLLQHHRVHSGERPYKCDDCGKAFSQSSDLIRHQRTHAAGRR
UniProt Q8R089: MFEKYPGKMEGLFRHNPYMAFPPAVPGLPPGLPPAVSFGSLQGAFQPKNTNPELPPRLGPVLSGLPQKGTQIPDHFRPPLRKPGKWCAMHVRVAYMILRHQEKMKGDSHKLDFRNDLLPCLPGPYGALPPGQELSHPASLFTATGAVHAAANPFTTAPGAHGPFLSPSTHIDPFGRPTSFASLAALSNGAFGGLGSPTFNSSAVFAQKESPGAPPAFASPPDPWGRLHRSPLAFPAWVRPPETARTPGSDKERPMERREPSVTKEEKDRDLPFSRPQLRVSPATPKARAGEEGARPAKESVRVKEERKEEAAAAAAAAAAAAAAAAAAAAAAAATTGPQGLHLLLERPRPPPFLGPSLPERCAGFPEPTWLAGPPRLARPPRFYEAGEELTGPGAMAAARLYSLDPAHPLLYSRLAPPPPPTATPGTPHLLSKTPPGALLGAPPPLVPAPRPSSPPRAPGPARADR
UniProt Q8R1K4: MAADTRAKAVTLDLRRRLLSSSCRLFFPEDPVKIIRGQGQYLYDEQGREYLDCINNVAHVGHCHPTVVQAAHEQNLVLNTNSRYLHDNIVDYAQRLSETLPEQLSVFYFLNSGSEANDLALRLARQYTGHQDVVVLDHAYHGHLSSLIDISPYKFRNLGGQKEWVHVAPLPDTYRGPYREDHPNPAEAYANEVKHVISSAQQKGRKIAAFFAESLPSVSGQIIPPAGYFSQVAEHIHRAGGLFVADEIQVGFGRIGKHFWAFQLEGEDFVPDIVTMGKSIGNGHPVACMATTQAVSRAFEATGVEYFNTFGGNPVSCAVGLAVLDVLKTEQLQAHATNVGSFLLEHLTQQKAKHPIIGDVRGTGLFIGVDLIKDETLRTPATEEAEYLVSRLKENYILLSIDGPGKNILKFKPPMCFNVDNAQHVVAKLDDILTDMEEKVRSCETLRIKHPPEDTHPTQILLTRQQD
UniProt Q8K2C7: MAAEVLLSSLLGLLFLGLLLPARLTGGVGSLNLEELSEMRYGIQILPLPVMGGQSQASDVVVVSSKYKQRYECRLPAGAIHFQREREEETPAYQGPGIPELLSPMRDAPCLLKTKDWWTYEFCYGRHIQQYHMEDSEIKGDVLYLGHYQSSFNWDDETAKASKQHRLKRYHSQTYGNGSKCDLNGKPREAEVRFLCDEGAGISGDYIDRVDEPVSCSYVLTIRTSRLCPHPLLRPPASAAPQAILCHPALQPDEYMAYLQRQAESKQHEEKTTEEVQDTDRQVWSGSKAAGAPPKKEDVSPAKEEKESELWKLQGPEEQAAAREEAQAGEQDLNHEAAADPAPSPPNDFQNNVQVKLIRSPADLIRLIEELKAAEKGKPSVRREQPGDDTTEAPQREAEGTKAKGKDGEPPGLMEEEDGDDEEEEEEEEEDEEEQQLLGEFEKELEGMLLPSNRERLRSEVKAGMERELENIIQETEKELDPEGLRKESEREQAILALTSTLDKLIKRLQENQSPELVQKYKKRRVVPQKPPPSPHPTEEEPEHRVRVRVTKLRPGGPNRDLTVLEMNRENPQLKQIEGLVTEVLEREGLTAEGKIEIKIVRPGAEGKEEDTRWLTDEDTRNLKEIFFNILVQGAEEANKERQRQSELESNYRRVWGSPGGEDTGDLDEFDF
UniProt Q8K1N1: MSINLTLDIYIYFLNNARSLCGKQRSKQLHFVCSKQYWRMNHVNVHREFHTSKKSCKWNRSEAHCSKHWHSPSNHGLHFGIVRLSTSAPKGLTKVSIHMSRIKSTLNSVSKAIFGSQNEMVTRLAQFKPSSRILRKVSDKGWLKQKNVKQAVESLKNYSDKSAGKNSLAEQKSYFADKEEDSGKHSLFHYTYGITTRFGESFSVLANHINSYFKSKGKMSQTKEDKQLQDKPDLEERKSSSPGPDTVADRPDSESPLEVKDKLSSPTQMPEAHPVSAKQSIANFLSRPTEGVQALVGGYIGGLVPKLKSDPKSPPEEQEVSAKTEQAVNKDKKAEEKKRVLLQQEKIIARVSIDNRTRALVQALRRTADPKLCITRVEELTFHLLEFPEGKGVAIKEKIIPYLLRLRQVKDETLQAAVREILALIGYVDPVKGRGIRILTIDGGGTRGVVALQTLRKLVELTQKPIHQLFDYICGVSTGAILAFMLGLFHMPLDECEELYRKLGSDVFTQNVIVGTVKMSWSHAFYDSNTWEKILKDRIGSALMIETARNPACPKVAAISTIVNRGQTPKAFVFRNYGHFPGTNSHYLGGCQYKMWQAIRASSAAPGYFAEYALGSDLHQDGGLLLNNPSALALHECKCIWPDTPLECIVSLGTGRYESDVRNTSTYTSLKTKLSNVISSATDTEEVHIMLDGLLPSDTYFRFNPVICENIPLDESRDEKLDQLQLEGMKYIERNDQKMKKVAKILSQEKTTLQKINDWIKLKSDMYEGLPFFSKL
UniProt Q8K1N2: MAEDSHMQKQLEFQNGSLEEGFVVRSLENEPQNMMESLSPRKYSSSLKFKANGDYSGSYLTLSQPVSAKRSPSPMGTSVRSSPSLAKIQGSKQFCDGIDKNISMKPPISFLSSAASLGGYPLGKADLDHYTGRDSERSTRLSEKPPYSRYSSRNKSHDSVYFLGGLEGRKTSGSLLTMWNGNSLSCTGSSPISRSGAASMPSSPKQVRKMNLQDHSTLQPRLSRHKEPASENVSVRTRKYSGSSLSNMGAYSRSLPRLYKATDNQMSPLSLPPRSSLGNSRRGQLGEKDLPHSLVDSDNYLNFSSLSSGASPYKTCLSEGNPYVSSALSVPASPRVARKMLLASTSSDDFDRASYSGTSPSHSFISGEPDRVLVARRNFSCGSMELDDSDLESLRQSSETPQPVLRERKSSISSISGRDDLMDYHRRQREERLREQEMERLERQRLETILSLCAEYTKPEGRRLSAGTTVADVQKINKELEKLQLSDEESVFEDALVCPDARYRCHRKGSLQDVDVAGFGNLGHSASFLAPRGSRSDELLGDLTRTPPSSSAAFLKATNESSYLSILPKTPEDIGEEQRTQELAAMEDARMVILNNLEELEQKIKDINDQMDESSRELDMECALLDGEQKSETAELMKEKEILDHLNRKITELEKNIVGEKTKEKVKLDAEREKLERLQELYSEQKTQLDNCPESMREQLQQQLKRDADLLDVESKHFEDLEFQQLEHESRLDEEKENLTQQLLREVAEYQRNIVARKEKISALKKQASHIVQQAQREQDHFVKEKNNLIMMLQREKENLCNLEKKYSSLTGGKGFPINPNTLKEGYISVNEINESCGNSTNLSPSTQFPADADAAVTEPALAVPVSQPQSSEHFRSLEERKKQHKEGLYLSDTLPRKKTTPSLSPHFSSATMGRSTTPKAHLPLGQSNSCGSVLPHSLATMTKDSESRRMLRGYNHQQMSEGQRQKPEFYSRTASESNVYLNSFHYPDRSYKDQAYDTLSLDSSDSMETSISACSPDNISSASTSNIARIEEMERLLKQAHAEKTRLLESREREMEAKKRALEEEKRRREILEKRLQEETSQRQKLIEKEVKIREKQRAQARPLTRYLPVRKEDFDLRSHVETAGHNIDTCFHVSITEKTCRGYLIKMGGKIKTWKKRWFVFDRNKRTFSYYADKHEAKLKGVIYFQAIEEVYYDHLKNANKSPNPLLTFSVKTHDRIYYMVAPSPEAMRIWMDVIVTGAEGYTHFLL
UniProt Q8K1B8, whole entry: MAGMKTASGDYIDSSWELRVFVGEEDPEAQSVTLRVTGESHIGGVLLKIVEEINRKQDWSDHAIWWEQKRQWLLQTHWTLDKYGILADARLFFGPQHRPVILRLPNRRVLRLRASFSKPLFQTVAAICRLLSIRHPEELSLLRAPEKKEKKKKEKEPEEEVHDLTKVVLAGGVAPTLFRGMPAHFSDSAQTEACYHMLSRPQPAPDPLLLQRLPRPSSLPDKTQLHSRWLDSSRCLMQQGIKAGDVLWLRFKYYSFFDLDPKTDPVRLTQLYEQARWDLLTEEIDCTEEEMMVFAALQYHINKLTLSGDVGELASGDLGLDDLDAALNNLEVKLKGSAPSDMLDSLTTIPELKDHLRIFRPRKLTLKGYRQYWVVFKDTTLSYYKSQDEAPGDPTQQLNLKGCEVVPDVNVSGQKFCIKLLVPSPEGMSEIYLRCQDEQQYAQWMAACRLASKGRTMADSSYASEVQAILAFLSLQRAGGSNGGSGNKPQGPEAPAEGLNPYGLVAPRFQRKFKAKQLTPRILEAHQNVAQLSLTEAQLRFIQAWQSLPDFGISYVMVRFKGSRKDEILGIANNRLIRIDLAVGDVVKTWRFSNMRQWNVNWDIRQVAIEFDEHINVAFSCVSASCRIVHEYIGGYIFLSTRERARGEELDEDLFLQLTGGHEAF
UniProt Q8K182, whole entry: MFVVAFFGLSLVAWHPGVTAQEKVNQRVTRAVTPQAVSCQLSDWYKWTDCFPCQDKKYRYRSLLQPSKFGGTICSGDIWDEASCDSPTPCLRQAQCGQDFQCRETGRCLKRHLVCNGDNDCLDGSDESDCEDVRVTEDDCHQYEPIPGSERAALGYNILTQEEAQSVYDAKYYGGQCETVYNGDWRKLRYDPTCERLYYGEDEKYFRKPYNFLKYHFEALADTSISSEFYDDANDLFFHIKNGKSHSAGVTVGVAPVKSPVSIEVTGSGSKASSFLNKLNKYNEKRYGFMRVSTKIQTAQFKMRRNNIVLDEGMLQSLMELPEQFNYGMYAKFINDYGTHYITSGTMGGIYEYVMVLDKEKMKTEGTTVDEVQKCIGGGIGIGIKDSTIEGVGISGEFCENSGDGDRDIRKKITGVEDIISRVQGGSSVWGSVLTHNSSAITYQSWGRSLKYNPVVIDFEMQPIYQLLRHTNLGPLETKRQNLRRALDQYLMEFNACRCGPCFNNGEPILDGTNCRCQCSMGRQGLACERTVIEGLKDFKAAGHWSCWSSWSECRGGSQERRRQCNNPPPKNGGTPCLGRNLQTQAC
UniProt Q8K3A9: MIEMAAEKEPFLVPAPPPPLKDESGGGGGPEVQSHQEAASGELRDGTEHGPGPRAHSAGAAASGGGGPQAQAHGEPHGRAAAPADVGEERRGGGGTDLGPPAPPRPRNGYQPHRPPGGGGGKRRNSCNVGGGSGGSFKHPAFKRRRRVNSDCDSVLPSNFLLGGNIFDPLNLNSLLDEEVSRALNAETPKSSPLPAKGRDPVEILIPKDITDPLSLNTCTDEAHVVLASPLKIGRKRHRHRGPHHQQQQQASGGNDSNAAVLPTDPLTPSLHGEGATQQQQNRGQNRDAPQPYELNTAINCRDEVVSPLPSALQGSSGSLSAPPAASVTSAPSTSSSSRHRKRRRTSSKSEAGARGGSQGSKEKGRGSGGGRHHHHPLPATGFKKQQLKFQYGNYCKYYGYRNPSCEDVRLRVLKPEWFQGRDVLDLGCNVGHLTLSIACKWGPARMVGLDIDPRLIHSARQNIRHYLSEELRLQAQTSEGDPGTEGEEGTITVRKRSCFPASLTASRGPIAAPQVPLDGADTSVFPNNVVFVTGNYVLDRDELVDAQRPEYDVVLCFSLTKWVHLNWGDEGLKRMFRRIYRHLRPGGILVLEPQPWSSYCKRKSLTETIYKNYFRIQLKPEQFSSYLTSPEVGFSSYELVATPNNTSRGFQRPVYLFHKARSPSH

What follows are targets tested with CN[C@@H]1C[C@H]2O[C@@](C)([C@@H]1OC)n1c3ccccc3c3c4c(c5c6ccccc6n2c5c31)C(=O)NC4 [staurosporine] (assay: log2 fold change of tryptic peptide abundance, ligand vs vehicle (limited proteolysis) (log2 ratio); higher = more trypsin-susceptible (destabilized)). Conditions: ligand concentration: 20 uM; sample: mouse liver crude lysate; replicate design: treated separately.

| Target | log2 fold change |
| --- | --- |
| UniProt Q8K288 (peptide sequence: SLALQAQKK, peptide start residue: 8) | -0.196 |
| UniProt Q8K4Q8 (peptide sequence: FGIQEGTQCTKCK, peptide start residue: 19) | 0.118 |
| UniProt Q8R1N0 (peptide sequence: NRQDEIK, peptide start residue: 314) | 0.274 |
| UniProt Q8K2J7 (peptide sequence: NEANADILK, peptide start residue: 128) | -0.227 |
| UniProt Q8QZV7 (peptide sequence: SVLLEQPR, peptide start residue: 359) | -0.577 |
| UniProt Q8K2C8 (peptide sequence: EKDEDAVQFANR, peptide start residue: 394) | -0.472 |
| UniProt Q8K2Q9 (peptide sequence: LIQQLEEERIQHQK, peptide start residue: 272) | -0.214 |
| UniProt Q8K2F0 (peptide sequence: KADTTTPTTSAITASR, peptide start residue: 244) | -0.199 |
| UniProt Q8QZT4 (peptide sequence: QTEGTYRPSSEEQVGAR, peptide start residue: 81) | 0.164 |
| UniProt Q8K2V1 (peptide sequence: YLADQNNQVR, peptide start residue: 139) | 0.169 |
| UniProt Q8K2Z8 (peptide sequence: AQQSYNSIVQIHEK, peptide start residue: 354) | -0.232 |
| UniProt Q8R0T2 (peptide sequence: CYSQNSSLR, peptide start residue: 409) | 0.459 |
| UniProt Q8R151 (peptide sequence: ASGVDIEEETEKNLEK, peptide start residue: 275) | -0.26 |
| UniProt Q8QZY1 (peptide sequence: IQLLVFK, peptide start residue: 488) | -0.38 |
| UniProt Q8R0N6 (peptide sequence: HLETAGILGANIR, peptide start residue: 378) | -0.128 |
| UniProt Q8R089 (peptide sequence: SPLAFPAWVRPPETAR, peptide start residue: 230) | 0.0975 |

| Target | log2 fold change |
| --- | --- |
| UniProt Q8R1K4 (peptide sequence: LFFPEDPVK, peptide start residue: 25) | 0.443 |
| UniProt Q8K2C7 (peptide sequence: QHEEKTTEEVQDTDR, peptide start residue: 267) | 0.471 |
| UniProt Q8K1N1 (peptide sequence: SYFADKEEDSGK, peptide start residue: 173) | 0.357 |
| UniProt Q8R0Z2 (peptide sequence: LLQQALQGMQQHLLK, peptide start residue: 427) | -0.417 |
| UniProt Q8K3Z9 (peptide sequence: SPAAAAADGGER, peptide start residue: 2) | -0.835 |
| UniProt Q8K2P1 (peptide sequence: QEMVNLR, peptide start residue: 95) | -0.083 |
| UniProt Q8K1N2 (peptide sequence: EKEILDHLNRK, peptide start residue: 639) | -0.847 |
| UniProt Q8K1B8 (peptide sequence: QYWVVFK, peptide start residue: 371) | 0.178 |
| UniProt Q8K182 (peptide sequence: VTEDDCHQYEPIPGSER, peptide start residue: 135) | -0.445 |
| UniProt Q8R0V5 (peptide sequence: SLAIPFVEVSR, peptide start residue: 110) | -0.135 |
| UniProt Q8K297 (peptide sequence: TPAYIPIR, peptide start residue: 209) | -0.118 |
| UniProt Q8K353 (peptide sequence: TTVYVVEDQRR, peptide start residue: 68) | -0.234 |
| UniProt Q8R0J4 (peptide sequence: ARFEVADEDKQSR, peptide start residue: 42) | 0.18 |
| UniProt Q8K3A9 (peptide sequence: RGGGGTDLGPPAPPRPR, peptide start residue: 91) | -0.182 |
| UniProt Q8R1C6 (peptide sequence: SDTVLSDVHLYTPNQR, peptide start residue: 12) | 0.105 |

Another view of part of the listing above.
Target,log2 fold change
"UniProt Q8R0Z2 (peptide sequence: LLQQALQGMQQHLLK, peptide start residue: 427)",-0.417
"UniProt Q8K3Z9 (peptide sequence: SPAAAAADGGER, peptide start residue: 2)",-0.835
